These are yes or no findings as the source states them, for the method shown. Some binding calls cover weakened binding; strength is not graded here.
Target: His6-tagged MsbA (UniProt P60752)
Experiment: native gel or EMSA; 5-13% native PAGE with Coomassie staining; DDC-MsbA preparation (reconstituted in peptidisc directly from the detergent extract, high lipid content); both purified

binding: binds
B1: His6-tagged MsbA (natural protein, UniProt P60752 1-582, looked up)
chain: MHNDKDLSTWQTFRRLWPTIAPFKAGLIVAGVALILNAASDTFMLSLLKPLLDDGFGKTDRSVLVWMPLVVIGLMILRGITSYVSSYCISWVSGKVVMTMRRRLFGHMMGMPVSFFDKQSTGTLLSRITYDSEQVASSSSGALITVVREGASIIGLFIMMFYYSWQLSIILIVLAPIVSIAIRVVSKRFRNISKNMQNTMGQVTTSAEQMLKGHKEVLIFGGQEVETKRFDKVSNRMRLQGMKMVSASSISDPIIQLIASLALAFVLYAASFPSVMDSLTAGTITVVFSSMIALMRPLKSLTNVNAQFQRGMAACQTLFTILDSEQEKDEGKRVIERATGDVEFRNVTFTYPGRDVPALRNINLKIPAGKTVALVGRSGSGKSTIASLITRFYDIDEGEILMDGHDLREYTLASLRNQVALVSQNVHLFNDTVANNIAYARTEQYSREQIEEAARMAYAMDFINKMDNGLDTVIGENGVLLSGGQRQRIAIARALLRDSPILILDEATSALDTESERAIQAALDELQKNRTSLVIAHRLSTIEKADEIVVVEDGVIVERGTHNDLLEHRGVYAQLHKMQFGQ
notes: The same protein was prepared with different amounts of endogenous lipid (DDC, DLW, DHW in peptidisc; DDM in detergent); also called DDC-MsbA; DLW-MsbA; source: E. coli BL21(DE3), membranes solubilized with DDM, purified (Ni-NTA), reconstituted in peptidiscs or kept in DDM
